The list shows a part of the results. Shown are side measurements of this screen, not its main read-out; they come without a call. The list favours compounds with an active or inconclusive main result. The note in brackets gives the kind of curve behind each potency; many fits are weak.

For orientation: AC50 means the concentration at which the activity in the assay is half-maximal. Low values mean greater potency, high ones weaker potency.

This assay is described as follows: qHTS Assay for Lipid Storage Modulators in Drosophila S3 Cells.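 On cell number change: cells counted by Cell Tracker Red CMTPX staining in the red channel.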 The note with it: BODIPY lipid droplet fluorescence, 18-24 h; for cell number change: measured here: cell count max response, cells fed with added oleic acid. The procedure, abridged: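 Drosophila S3 cells got compounds at several concentrations plus oleic acid (400 uM solution). Laser-scanning cytometry with 488 nm excitation read lipid droplets at 500-530 nm and cells at 575-640 nm. Percent activity was relative to 20 uM Triacsin C.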
(qHTS replaces the single test concentration by a dilution series.)

The mark [1] stands for this setting: measured here: cell number channel AC50, cells fed with added oleic acid.
Where [2] appears, read: measured here: lipid fluorescence (Fed channel) AC50, cells fed with added oleic acid.

Consider `O=C1NC(=O)C2(COC(c3ccncc3)OC2)S1` (stereo not given), for which the cell number change was -52.7%. Besides, the AC50 under setting [1] was 0.00461 µM [falling, full curve, poor fit].

Consider `CCC(C)Sc1nnc(CNC(=O)C23CC4CC(CC(C4)C2)C3)n1C1CCCCC1` (stereo not given), for which the cell number change was -49.7%. Besides, the half-maximal activity concentration (AC50) under setting [1] was 16.4 µM [falling, single point]. The AC50 under setting [2] was 18.4 µM [falling, single point].

For the compound `CC(C)C(NC(=O)c1ccccc1)C(=O)NCC(c1ccccc1)N(C)C` (stereo not given), the cell number change is -65.8%. For the same compound, the AC50 under setting [1] is 14.6 µM [falling, partial curve]. Also, the concentration at half-maximal activity (AC50) under setting [2] is 23.1 µM [falling, partial curve].

Turning to `C/C(=N\NC(=O)C(c1ccccc1)c1ccccc1)c1ccccn1`, the cell number change was -2.76%. Moreover, the AC50 under setting [1] was 6.51 µM [falling, single point]. The AC50 under setting [2] was 2.06 µM [falling, partial curve].

Turning to `S=C(NCc1ccco1)Nc1ccc(Oc2ccccc2)cc1`, the half-maximal activity concentration (AC50) under setting [2] is 4.11 µM [rising, single point].

`Cc1cc2cc(CNS(=O)(=O)c3ccccc3)ccc2n1C`: the cell number change worked out at 0.395%. Further, the concentration at half-maximal activity (AC50) under setting [2] was 3.66 µM [rising, single point].

For the compound `COc1ccccc1C(=O)N(C)c1nnc(-c2ccccc2)s1`, the cell number change was determined as 2.89%. Besides, the AC50 under setting [2] was 18.4 µM [rising, partial curve].

As to `CCOc1ccc(CN(C(=O)c2ccco2)C2CCS(=O)(=O)C2)cc1` (stereo not given), the cell number change was -48.9%. The AC50 under setting [1] was 29.1 µM [falling, single point]. In addition, the half-maximal activity concentration (AC50) under setting [2] was 16.4 µM [falling, single point].

`COc1cccc(/C=C2/SC(=S)N(CC(=O)NNC(=O)c3ccccc3OC)C2=O)c1`: the cell number change was determined as 3.04%. Moreover, the concentration at half-maximal activity (AC50) under setting [2] is 29.1 µM [rising, single point].

Take `CCOc1ccc(-c2cc(N)n(S(=O)(=O)c3cccc4nsnc34)n2)cc1`: the cell number change was determined as 11.5%. Besides, the AC50 under setting [2] was 29.1 µM [rising, single point].

Take `COc1ccccc1C(=O)CSc1n[nH]c(N)n1`: the cell number change was -15.9%. For the same compound, under setting [2], the AC50 was 2.31 µM [falling, full curve].

For the compound `COc1ccc(-c2cc(C)no2)cc1S(=O)(=O)N1CCCN(Cc2ccccc2Cl)C1`, the cell number change was -5.07%. Moreover, the concentration at half-maximal activity (AC50) under setting [2] was 16.4 µM [falling, single point].

For the compound `COc1ccc(NC(=O)CSc2nc3c(c(=O)n2-c2ccc(C)cc2)SCC3)c(OC)c1`, the cell number change came to 18%. Under setting [2], the half-maximal activity concentration (AC50) was 9.2 µM [rising, partial curve, poor fit].

Regarding `COc1ccc(/C=N/NC(=O)c2cccc([N+](=O)[O-])c2)c2ccccc12`, the cell number change is -108%.

As for `COCCn1c(SCc2nc3ccccc3s2)nc2ccccc21`, the cell number change is 29.7%. Also, the half-maximal activity concentration (AC50) under setting [1] was 0.103 µM [rising, full curve]. Further, the half-maximal activity concentration (AC50) under setting [2] is 0.58 µM [rising, full curve].

`COc1ccc(N2CCN(C(=O)CCCCCn3c(=O)[nH]c4ccsc4c3=O)CC2)cc1`: the cell number change is 24.4%. Moreover, the AC50 under setting [1] was 0.0651 µM [rising, partial curve, poor fit].

`CC1CCN(c2nc3ccc(C(=O)N4CCN(Cc5ccccc5)CC4)cc3s2)CC1`: the cell number change was determined as 21%. For the same compound, the AC50 under setting [1] was 2.59 µM [rising, partial curve]. Besides, under setting [2], the concentration at half-maximal activity (AC50) is 32.6 µM [rising, single point].

On to `Cc1onc(-c2ccccc2)c1C(=O)OCC(=O)Nc1cccc(Cl)c1`, for which the cell number change was -41%. For the same compound, under setting [1], the concentration at half-maximal activity (AC50) was 18.4 µM [falling, partial curve, poor fit]. The AC50 under setting [2] was 25.9 µM [falling, partial curve, poor fit].

Take `CC1CCCCC1NC(=O)c1ccncc1` (stereo not given): the cell number change stood at 24.1%. Moreover, the concentration at half-maximal activity (AC50) under setting [2] is 0.355 µM [rising, full curve].

As to `CCN(CC(=O)Nc1ccc2c(c1)OCCO2)S(=O)(=O)c1cccs1`, the cell number change stood at 48.4%. Also, the AC50 under setting [1] is 13 µM [rising, partial curve]. Moreover, under setting [2], the half-maximal activity concentration (AC50) is 6.51 µM [rising, single point].

As for `COc1ccc(NS(=O)(=O)c2cc(C(=O)N3CCN(C/C=C/c4ccccc4)CC3)ccc2C)cc1`, the cell number change was 62.3%.

As for `CCOc1cc(/C=N/n2c(COc3ccccc3)n[nH]c2=S)ccc1O`, the cell number change turned out to be 172%.

Take `COC(=O)c1cc2c(=O)n3ccccc3nc2n(C)c1=N`: the cell number change worked out at 80.3%. Besides, under setting [1], the AC50 is 29.1 µM [rising, single point].

As for `COc1ccc(N2C(N)=C(C#N)C(c3ccsc3)C3=C2CCCC3=O)c(OC)c1` (stereo not given), the cell number change worked out at 13.2%. Under setting [2], the AC50 is 1.03 µM [rising, partial curve, poor fit].

As to `CN(C)CCNc1nc2c(c(=O)[nH]c(=O)n2C)n1CCCc1ccccc1`, the cell number change was -37.7%. The AC50 under setting [1] is 0.366 µM [falling, full curve]. Also, under setting [2], the AC50 was 0.58 µM [falling, full curve].

Turning to `CCOc1cc(/C=C(\C(=O)O)c2ccc(S(=O)(=O)N3CCCC3)s2)ccc1OC`, the cell number change was found to be 38.1%. Also, the concentration at half-maximal activity (AC50) under setting [1] is 14.6 µM [rising, partial curve, poor fit]. Further, the concentration at half-maximal activity (AC50) under setting [2] was 14.6 µM [rising, partial curve].

`Cc1cc(=O)n2nc(N3CCC(C(=O)NC4CCCc5ccccc54)CC3)sc2n1` (stereo not given): the cell number change amounted to 10.7%. In addition, the half-maximal activity concentration (AC50) under setting [2] was 25.9 µM [falling, single point].

Consider `O=C(CSc1ccc2c(c1)OCCO2)Nc1cccc(S(=O)(=O)N2CCCCC2)c1`, for which the cell number change is 61.2%. The AC50 under setting [1] is 29.1 µM [rising, single point]. Moreover, the AC50 under setting [2] was 18.4 µM [rising, partial curve].

Regarding `Brc1ccc(-c2nnc3c4ccccc4nc(N4CCOCC4)n23)cc1`, the cell number change was -1.07%. Further, the AC50 under setting [2] is 0.411 µM [rising, full curve].

As to `Cn1cnnc1SCC(=O)Nc1ccc(S(=O)(=O)N2CCOCC2)cc1`, the cell number change is 10.9%. The AC50 under setting [2] was 0.58 µM [rising, full curve, poor fit].

Take `COc1ccc(NC(=O)CSCC(=O)Nc2cc(Cl)ccc2N2CCCC2)cc1`: the cell number change was -25%. For the same compound, the concentration at half-maximal activity (AC50) under setting [1] is 0.146 µM [falling, full curve, poor fit].

As for `CC1(C)CC(=O)C=C(Nc2ccccc2C#N)C1`, the cell number change worked out at 18.9%. In addition, under setting [2], the AC50 is 5.8 µM [rising, single point].

On to `Cc1onc(-c2ccccc2)c1C(=O)N/N=C/c1cc(Br)c(Br)o1`, for which the cell number change was 33.1%. Moreover, the half-maximal activity concentration (AC50) under setting [1] was 3.66 µM [rising, full curve, poor fit]. The half-maximal activity concentration (AC50) under setting [2] is 6.51 µM [rising, single point].

For the compound `O=C(NCc1ccccc1)c1ccc(CN(c2ccccn2)S(=O)(=O)c2ccccc2)cc1`, the half-maximal activity concentration (AC50) under setting [2] was 32.6 µM [falling, single point].
